PubChem BioAssay AID1259405 | NCATS | 2018
Shown is an unselected part of about 50,000 deposited reagents. About 4,000 of all reagents (8%) were called active. 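Mouse siRNA library applied to hamster cells; one well for each siRNA.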 The numbers tell different reagents against one gene apart.

- Test: 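Knock-downs that lift recombinant protein yield in hamster ovary cells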 (primary screen)
- Cell system: Chinese hamster CHO-K1 ovary cells with stable secreted eGFP expression
- Reagent: single siRNA against mouse genes, 0.8 pmol siRNA per well (2 µl of 400 nM stock)
- Time to read-out: 3 days
- Measured: 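Percent of the per-plate non-targeting control median for intracellular GFP per well by laser scanning cytometry and for cell viability by ATP luminescence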
- Direction: GFP, % of control: higher = more GFP per well, higher productivity; viability (ATP), % of control: higher = more viable cells (more ATP)
- Rule for the call: 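Called active when intracellular GFP, relative to negative control, is at or above 120%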

target gene	reagent	GFP, % of control	viability (ATP), % of control	Outcome
Rpl5	1	44.1	40.7	inactive
Rpl5	2	68.2	61.1	inactive
Rpl5	3	60.7	41.4	inactive
Usp11	1	80.3	99.3	inactive
Usp11	2	50.6	59.2	inactive
Usp11	3	33.7	54	inactive
Rpain	1	50.1	59.2	inactive
Rpain	2	44	78.5	inactive
Rpain	3	107	118	inactive
Rnf167	1	89.5	70.6	inactive
Rnf167	2	33.1	51.6	inactive
Rnf167	3	74.7	62.2	inactive
Or5b112	1	60.7	69.3	inactive
Or5b112	2	84	79.5	inactive
Or5b112	3	31.8	38.8	inactive
Or5aq6	1	129	57.1	active
Or5aq6	2	89.7	89.4	inactive
Or5aq6	3	76.2	54.7	inactive
Dnajb6	1	79	76.1	inactive
Dnajb6	2	105	100	inactive
Dnajb6	3	58	49.3	inactive
Mypop	1	96.8	81.5	inactive
Mypop	2	31.8	51	inactive
Mypop	3	71.3	106	inactive
A130023I24Rik	1	62.1	59.7	inactive
A130023I24Rik	2	79.9	67.6	inactive
A130023I24Rik	3	78	95.8	inactive
Rpl19	1	47.8	49.4	inactive
Rpl19	2	77.4	49.3	inactive
Rpl19	3	38.8	22.1	inactive
Srp68	1	24.5	24.2	inactive
Srp68	2	81.3	64.9	inactive
Srp68	3	121	124	active
Nprl3	1	62.9	49	inactive
Nprl3	2	125	81.2	active
Nprl3	3	103	54	inactive
Nfix	1	113	114	inactive
Nfix	2	52	72.4	inactive
Nfix	3	123	91.9	active
Ngrn	1	65.8	59.8	inactive
Ngrn	2	97.2	81.9	inactive
Ngrn	3	90.6	89.8	inactive
Map1b	1	42.2	57.5	inactive
Map1b	2	83.5	91.2	inactive
Caln1	1	61.1	70.7	inactive
Caln1	2	58	46	inactive
Caln1	3	84	60.1	inactive
Otos	1	92	53.9	inactive
Otos	2	99.3	65.3	inactive
Otos	3	81.2	42.7	inactive
Ube2l6	1	70.3	87.4	inactive
Ube2l6	2	75.5	67.6	inactive
Ube2l6	3	72.4	115	inactive
Prdm16	1	58.9	72.5	inactive
Prdm16	2	86.8	51.7	inactive
Prdm16	3	81.8	100	inactive
Pla2g4d	1	127	106	active
Pla2g4d	2	111	102	inactive
Pla2g4d	3	88.4	73.2	inactive
Stat3	1	63.6	75.8	inactive
Stat3	2	75.9	82.4	inactive
Stat3	3	47.5	77.6	inactive
Or2n1d	1	60.9	73.4	inactive
Or2n1d	2	51.9	65.2	inactive
Or2n1d	3	85.7	88.4	inactive
Dcun1d3	1	43	37.3	inactive
Dcun1d3	2	55.4	64.5	inactive
Dcun1d3	3	93.9	85	inactive
Defa1	1	84.3	100	inactive
Defa1	2	83.4	82.5	inactive
Defa1	3	136	50.9	active
Lce1g	1	89.2	67.1	inactive
Lce1g	2	50.1	52.9	inactive
Lce1g	3	82.4	70.1	inactive
2310030G06Rik	1	56.4	52.1	inactive
2310030G06Rik	2	86.2	77.2	inactive
2310030G06Rik	3	80.1	89.1	inactive
Spinkl	1	46.3	58.6	inactive
Spinkl	2	150	100	active
Spinkl	3	74.5	83.4	inactive
Elof1	1	100	84.2	inactive
Elof1	2	69.9	75.2	inactive
Elof1	3	77.2	46.2	inactive
Zfp106	1	71.9	98.9	inactive
Zfp106	2	61.8	87.2	inactive

Ordered by “GFP, % of control” (lowest first): some entries from above
target gene	reagent	GFP, % of control	viability (ATP), % of control	Outcome
Map1b	1	42.2	57.5	inactive
Caln1	2	58	46	inactive
Caln1	1	61.1	70.7	inactive
Map1b	2	83.5	91.2	inactive
Caln1	3	84	60.1	inactive
Ngrn	3	90.6	89.8	inactive
Otos	1	92	53.9	inactive
Ngrn	2	97.2	81.9	inactive
